{"source": "patent EP1140980B1", "about": "“PSEUDOPEPTIDE COMPOUNDS HAVING AN INHIBITING ACTIVITY WITH RESPECT TO PATHS ACTIVATED BY PROTEINS WITH ACTIVE TYROSINE KINASE ACTIVITY AND PHARMACEUTICAL COMPOSITIONS CONTAINING SAME” (INSTITUT NATIONAL DE LA SANTE ET DE LA RECHERCHE MEDICALE …, priority 1998, dated 2004)", "molecular_target": "Grb2", "assay": "Affinity for Grb2 by fluorescence", "format": "binding", "settings": "affinité pour Grb2 évaluée par fluorescence; 25°C, HEPES 50mM, DTT 1mM, pH 7,5", "note": "Part of at least one peptide drawing is inferred or uncertain, most often the ends. Non-standard residues stand in square brackets, D forms with d. Residues, ends and D or L forms follow the SMILES beside them. pY = N[C@@H](Cc1ccc(OP(=O)(O)O)cc1)C(=O)O", "data": [{"smiles": "CC(C)[C@H](NC(=O)[C@H](CC(N)=O)NC(=O)[C@@H](NC(=O)[C@H](Cc1ccc(OP(=O)(O)O)cc1)NC(=O)[C@H](CO)NC(=O)[C@@H]1CCCN1)C(C)C)C(=O)N[C@@H](CCC(N)=O)C(=O)N[C@@H](CC(N)=O)C(=O)O", "note": "[PSpYVNVQN] (H-PS[pY]VNVQN-OH)", "values": [{"measurement": "Kd", "value": 0.018, "unit": "µM"}]}]}
